Three molecules from paper PMC3276509 can be followed below.

Protein sequences, listed by entry. Tags and fused reporters are not part of them. Residues count along the entry.
UniProt P23818, residues 19-907: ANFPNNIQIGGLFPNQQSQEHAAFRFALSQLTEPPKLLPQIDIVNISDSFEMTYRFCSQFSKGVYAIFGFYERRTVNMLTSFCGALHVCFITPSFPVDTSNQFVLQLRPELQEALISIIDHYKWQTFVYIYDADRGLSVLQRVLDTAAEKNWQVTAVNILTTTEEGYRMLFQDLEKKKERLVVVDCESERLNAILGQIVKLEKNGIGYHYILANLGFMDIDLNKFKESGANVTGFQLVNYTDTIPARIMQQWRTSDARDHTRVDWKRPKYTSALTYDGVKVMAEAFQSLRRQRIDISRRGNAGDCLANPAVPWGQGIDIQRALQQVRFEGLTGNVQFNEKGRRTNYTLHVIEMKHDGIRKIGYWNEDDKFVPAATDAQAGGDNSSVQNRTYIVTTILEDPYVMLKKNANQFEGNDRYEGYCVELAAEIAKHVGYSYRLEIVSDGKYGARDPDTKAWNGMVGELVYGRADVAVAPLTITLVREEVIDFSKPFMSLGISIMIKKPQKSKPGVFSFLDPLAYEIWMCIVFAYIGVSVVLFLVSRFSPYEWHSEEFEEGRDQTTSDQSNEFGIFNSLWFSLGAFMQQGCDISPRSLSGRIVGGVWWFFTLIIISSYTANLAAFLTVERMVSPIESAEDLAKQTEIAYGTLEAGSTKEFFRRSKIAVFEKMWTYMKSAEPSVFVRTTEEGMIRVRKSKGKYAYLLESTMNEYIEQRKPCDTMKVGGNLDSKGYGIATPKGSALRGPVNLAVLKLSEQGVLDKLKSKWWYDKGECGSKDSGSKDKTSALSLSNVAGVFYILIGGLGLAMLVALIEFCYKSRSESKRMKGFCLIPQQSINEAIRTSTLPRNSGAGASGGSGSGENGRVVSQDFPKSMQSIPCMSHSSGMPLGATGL
UniProt Q811D0: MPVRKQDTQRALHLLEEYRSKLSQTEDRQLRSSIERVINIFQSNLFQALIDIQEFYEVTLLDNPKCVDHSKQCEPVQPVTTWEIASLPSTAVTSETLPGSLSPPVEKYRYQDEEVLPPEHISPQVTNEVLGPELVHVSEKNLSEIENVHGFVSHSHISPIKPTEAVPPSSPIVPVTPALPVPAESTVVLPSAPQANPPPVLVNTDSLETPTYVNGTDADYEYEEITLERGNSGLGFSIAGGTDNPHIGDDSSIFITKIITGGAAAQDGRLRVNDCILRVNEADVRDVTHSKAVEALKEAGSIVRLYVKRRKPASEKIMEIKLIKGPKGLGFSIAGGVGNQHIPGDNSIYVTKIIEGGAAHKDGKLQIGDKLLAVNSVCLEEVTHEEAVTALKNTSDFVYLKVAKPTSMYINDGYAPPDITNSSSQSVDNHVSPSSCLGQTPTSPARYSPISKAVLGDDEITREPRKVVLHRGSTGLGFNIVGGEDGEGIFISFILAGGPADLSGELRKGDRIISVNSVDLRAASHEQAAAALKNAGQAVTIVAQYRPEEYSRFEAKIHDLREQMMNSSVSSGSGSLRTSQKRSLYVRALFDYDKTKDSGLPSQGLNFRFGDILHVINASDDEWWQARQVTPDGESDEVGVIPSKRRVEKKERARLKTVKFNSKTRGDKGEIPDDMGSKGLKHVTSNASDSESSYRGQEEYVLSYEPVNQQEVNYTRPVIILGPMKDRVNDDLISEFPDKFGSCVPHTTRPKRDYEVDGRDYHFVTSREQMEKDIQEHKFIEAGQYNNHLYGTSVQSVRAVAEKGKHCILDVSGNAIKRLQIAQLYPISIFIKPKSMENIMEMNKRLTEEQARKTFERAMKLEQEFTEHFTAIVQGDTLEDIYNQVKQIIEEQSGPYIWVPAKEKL

Assay [1] has as its target T1, rapsyn (mouse (endogenous in primary myotubes, C57 mice)) (UniProt P12672).
T1 sequence: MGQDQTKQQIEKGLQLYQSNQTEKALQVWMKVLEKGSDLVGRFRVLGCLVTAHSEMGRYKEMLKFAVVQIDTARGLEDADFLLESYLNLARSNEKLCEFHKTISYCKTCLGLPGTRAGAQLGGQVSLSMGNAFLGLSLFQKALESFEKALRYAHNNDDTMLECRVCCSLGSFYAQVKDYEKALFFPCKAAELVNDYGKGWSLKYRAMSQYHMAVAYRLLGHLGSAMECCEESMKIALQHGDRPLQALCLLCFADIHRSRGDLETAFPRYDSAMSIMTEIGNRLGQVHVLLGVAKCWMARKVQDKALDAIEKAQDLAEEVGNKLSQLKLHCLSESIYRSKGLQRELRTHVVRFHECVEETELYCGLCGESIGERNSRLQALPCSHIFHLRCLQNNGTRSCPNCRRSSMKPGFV
In words: co-IP; membrane extracts (40 ug, 1% NP40 buffer) of pure myotubes and of myotubes with cortical neurons seeded over them; precipitated with monoclonal anti-rapsyn antibody and protein A/G overnight at 4°C, washed with RIPA buffer, immunoblotted for GluR1, SAP97, stargazin and PSD95. (In general: A western blot detects proteins with antibodies after separation by electrophoresis.)

Assay [2] addresses GluR1 AMPA receptor subunit (mouse (endogenous in myotube-neuron cocultures, C57 mice)) (UniProt P23818). Briefly: co-IP; membrane extracts (40 ug, 1% NP40 buffer) of pure myotubes and of myotubes with cortical neurons seeded over them; precipitated with rabbit anti-GluR1 antibody and protein A/G overnight at 4°C, washed with RIPA buffer, immunoblotted for rapsyn.

No constants are given. Whether binding was seen depends on the method and setting. In cells and extracts the contact can be indirect. Some entries that bind do so weakly or less than the wild type.

For SAP97 (from UniProt Q811D0 1-905), the binding result in assay [1] is “binds”.

B1: rapsyn (protein, UniProt P12672 1-412)
chain: MGQDQTKQQIEKGLQLYQSNQTEKALQVWMKVLEKGSDLVGRFRVLGCLVTAHSEMGRYKEMLKFAVVQIDTARGLEDADFLLESYLNLARSNEKLCEFHKTISYCKTCLGLPGTRAGAQLGGQVSLSMGNAFLGLSLFQKALESFEKALRYAHNNDDTMLECRVCCSLGSFYAQVKDYEKALFFPCKAAELVNDYGKGWSLKYRAMSQYHMAVAYRLLGHLGSAMECCEESMKIALQHGDRPLQALCLLCFADIHRSRGDLETAFPRYDSAMSIMTEIGNRLGQVHVLLGVAKCWMARKVQDKALDAIEKAQDLAEEVGNKLSQLKLHCLSESIYRSKGLQRELRTHVVRFHECVEETELYCGLCGESIGERNSRLQALPCSHIFHLRCLQNNGTRSCPNCRRSSMKPGFV
On to B1, for which the binding entry in assay [2] is reported as “binds”.

B2: stargazin (protein, UniProt O88602 1-323)
chain: MGLFDRGVQMLLTTVGAFAAFSLMTIAVGTDYWLYSRGVCKTKSVSENETSKKNEEVMTHSGLWRTCCLEGNFKGLCKQIDHFPEDADYEADTAEYFLRAVRASSIFPILSVILLFMGGLCIAASEFYKTRHNIILSAGIFFVSAGLSNIIGIIVYISANAGDPSKSDSKKNSYSYGWSFYFGALSFIIAEMVGVLAVHMFIDRHKQLRATARATDYLQASAITRIPSYRYRYQRRSRSSSRSTEPSHSRDASPVGVKGFNTLPSTEISMYTLSRDPLKAATTPTATYNSDRDNSFLQVHNCIQKDSKDSLHANTANRRTTPV
With B2, the binding entry in assay [1] is reported as “binds”.
